Laboratory results taken from paper PMC10646014.
No constants are given. Whether binding was seen depends on the method and setting. Binding seen in cells or lysates may run through a third protein. Some entries that bind do so weakly or less than the wild type. For part of these data: Sequences can lack the tags named with a protein.

What was measured:
[1] = target: T1, endogenous SETD5 (human (endogenous; cell line not shown, all cell lines of the paper are human)) (UniProt Q9C0A6); experiment: co-IP; endogenous proteins; IP assay (Supplementary Fig. S4A); cell line and precipitating antibody not shown
T1 sequence: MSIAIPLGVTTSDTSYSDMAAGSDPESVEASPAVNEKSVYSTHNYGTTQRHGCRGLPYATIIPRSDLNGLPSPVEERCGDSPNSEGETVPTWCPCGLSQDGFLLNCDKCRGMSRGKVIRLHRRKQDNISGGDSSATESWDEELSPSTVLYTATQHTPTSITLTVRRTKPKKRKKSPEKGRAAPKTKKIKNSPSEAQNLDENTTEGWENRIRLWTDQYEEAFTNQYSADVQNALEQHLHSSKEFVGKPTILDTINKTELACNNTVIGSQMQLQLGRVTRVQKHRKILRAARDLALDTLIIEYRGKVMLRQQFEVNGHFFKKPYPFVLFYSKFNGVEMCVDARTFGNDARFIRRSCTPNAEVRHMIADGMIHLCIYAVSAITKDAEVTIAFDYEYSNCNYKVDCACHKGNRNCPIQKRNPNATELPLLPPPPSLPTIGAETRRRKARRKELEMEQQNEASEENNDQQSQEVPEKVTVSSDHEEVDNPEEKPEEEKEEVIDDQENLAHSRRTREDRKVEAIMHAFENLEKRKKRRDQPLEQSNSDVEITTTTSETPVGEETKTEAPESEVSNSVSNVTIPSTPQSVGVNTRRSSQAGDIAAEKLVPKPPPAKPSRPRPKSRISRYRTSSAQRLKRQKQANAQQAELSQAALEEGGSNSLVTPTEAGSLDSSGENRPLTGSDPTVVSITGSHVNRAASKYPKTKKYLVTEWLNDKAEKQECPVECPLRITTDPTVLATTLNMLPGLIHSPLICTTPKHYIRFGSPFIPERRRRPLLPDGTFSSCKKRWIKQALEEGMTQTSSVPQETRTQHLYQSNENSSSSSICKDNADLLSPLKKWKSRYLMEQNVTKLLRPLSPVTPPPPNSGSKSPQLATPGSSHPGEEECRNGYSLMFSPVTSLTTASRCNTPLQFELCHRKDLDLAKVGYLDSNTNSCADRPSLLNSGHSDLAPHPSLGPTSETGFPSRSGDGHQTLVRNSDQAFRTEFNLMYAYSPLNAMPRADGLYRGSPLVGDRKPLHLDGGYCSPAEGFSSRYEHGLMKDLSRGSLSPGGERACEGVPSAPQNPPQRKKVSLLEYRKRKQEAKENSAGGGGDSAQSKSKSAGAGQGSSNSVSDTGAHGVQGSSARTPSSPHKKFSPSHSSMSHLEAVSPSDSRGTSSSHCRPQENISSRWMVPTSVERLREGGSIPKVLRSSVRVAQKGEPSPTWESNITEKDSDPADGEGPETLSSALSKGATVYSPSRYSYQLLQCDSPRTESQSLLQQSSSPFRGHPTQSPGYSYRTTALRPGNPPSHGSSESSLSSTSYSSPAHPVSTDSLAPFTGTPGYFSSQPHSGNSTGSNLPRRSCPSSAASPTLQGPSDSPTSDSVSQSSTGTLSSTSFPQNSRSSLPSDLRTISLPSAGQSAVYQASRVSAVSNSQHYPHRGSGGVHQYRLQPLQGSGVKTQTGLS

[2] = target: T2, SETD5 deletion mutant ΔC, lacking the C-terminal region (892–1443) (human) (UniProt Q9C0A6); experiment: co-IP; SETD5-depleted HCT116 cells with SETD5 WT or ΔC and MYC-tagged OGT, 100 nM OGAi for 24 h; IP assay, western blot (Fig. 4C)
T2 sequence: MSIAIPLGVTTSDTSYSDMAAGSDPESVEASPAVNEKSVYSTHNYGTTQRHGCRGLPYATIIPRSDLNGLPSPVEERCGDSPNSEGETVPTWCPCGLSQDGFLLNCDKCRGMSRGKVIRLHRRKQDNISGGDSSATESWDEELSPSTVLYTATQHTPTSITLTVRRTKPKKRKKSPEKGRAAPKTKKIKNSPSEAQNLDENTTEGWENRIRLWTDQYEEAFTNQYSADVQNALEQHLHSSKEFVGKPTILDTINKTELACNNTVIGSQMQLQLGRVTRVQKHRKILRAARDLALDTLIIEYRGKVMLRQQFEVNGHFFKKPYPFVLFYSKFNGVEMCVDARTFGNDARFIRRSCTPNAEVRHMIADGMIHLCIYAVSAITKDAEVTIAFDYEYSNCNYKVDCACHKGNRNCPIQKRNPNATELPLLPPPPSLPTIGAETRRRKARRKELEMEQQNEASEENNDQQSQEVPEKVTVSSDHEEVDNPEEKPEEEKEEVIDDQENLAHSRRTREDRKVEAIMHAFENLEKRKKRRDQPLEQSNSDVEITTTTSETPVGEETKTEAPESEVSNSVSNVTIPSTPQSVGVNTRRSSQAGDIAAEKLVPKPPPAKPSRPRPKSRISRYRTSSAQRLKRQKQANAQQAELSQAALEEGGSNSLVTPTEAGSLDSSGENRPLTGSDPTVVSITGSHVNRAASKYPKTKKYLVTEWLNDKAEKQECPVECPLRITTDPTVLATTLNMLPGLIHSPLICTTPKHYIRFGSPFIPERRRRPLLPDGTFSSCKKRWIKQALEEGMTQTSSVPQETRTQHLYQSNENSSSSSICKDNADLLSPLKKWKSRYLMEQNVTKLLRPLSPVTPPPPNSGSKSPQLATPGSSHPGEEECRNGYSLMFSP

[3] = target: T3, Flag-tagged SETD5, full-length wild type, in HCT116 cells (human) (UniProt Q9C0A6); experiment: as above
T3 sequence (chain, O-GlcNAcylated (reduced with OSMI-1)): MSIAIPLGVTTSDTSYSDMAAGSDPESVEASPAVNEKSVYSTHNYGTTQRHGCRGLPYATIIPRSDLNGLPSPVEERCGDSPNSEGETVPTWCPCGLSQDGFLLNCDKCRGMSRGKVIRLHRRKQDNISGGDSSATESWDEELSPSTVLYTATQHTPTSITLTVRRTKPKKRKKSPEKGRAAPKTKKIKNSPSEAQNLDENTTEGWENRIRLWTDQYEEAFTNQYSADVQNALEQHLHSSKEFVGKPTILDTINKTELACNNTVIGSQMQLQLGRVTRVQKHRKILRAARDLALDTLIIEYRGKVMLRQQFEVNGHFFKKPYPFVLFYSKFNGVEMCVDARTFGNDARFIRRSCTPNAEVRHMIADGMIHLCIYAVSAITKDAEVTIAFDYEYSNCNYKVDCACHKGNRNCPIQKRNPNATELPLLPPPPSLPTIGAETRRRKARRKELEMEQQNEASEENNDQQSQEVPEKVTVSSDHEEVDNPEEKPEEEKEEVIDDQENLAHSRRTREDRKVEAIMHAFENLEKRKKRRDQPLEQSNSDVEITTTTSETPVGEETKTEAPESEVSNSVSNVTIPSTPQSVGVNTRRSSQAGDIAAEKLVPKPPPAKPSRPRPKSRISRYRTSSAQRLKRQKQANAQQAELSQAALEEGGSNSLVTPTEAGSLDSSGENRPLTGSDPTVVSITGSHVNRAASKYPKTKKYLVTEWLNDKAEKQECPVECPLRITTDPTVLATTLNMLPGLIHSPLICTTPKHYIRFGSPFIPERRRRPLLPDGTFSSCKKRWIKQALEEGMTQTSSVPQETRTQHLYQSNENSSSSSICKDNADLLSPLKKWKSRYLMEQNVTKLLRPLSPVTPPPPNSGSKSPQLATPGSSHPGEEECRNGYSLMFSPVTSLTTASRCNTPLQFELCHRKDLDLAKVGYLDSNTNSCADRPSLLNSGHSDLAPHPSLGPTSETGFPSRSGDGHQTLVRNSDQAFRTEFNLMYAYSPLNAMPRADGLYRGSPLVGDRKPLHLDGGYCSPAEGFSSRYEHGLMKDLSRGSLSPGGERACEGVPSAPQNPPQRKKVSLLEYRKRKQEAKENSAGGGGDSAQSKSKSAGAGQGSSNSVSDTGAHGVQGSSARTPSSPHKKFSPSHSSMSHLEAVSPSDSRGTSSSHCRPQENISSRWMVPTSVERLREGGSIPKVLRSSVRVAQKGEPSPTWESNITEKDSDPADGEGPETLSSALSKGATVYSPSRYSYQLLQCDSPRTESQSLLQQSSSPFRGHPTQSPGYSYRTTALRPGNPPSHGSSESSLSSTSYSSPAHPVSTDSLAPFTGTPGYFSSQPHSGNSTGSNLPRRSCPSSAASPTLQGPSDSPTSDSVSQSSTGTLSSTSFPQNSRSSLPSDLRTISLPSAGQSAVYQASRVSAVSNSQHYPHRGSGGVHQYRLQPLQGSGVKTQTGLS

Binder | binding [1] | binding [2] | binding [3]
endogenous OGT (enzyme, UniProt O15294 1-1046) MASSVGNVADSTEPTKRMLSFQGLAELAHREYQAGDFEAAERHCMQLWRQEPDNTGVLLLLSSIHFQCRRLDRSAHFSTLAIKQNPLLAEAYSNLGNVYKERGQLQEAIEHYRHALRLKPDFIDGYINLAAALVAAGDMEGAVQAYVSALQYNPDLYCVRSDLGNLLKALGRLEEAKACYLKAIETQPNFAVAWSNLGCVFNAQGEIWLAIHHFEKAVTLDPNFLDAYINLGNVLKEARIFDRAVAAYLRALSLSPNHAVVHGNLACVYYEQGLIDLAIDTYRRAIELQPHFPDAYCNLANALKEKGSVAEAEDCYNTALRLCPTHADSLNNLANIKREQGNIEEAVRLYRKALEVFPEFAAAHSNLASVLQQQGKLQEALMHYKEAIRISPTFADAYSNMGNTLKEMQDVQGALQCYTRAIQINPAFADAHSNLASIHKDSGNIPEAIASYRTALKLKPDFPDAYCNLAHCLQIVCDWTDYDERMKKLVSIVADQLEKNRLPSVHPHHSMLYPLSHGFRKAIAERHGNLCLDKINVLHKPPYEHPKDLKLSDGRLRVGYVSSDFGNHPTSHLMQSIPGMHNPDKFEVFCYALSPDDGTNFRVKVMAEANHFIDLSQIPCNGKAADRIHQDGIHILVNMNGYTKGARNELFALRPAPIQAMWLGYPGTSGALFMDYIITDQETSPAEVAEQYSEKLAYMPHTFFIGDHANMFPHLKKKAVIDFKSNGHIYDNRIVLNGIDLKAFLDSLPDVKIVKMKCPDGGDNADSSNTALNMPVIPMNTIAEAVIEMINRGQIQITINGFSISNGLATTQINNKAATGEEVPRTIIVTTRSQYGLPEDAIVYCNFNQLYKIDPSTLQMWANILKRVPNSVLWLLRFPAVGEPNIQQYAQNMGLPQNRIIFSPVAPKEEHVRRGQLADVCLDTPLCNGHTTGMDVLWAGTPMVTMPGETLASRVAASQLTCLGCLELIAKNRQEYEDIAVKLGTDLEYLKKVRGKVWKQRISSPLFNTKQYTMELERLYLQMWEHYAAGNKPDHMIKPVEVTESA | binds |  | 
MYC-tagged OGT (O-GlcNAc transferase) in HCT116 cells (enzyme, UniProt O15294 1-1046) MASSVGNVADSTEPTKRMLSFQGLAELAHREYQAGDFEAAERHCMQLWRQEPDNTGVLLLLSSIHFQCRRLDRSAHFSTLAIKQNPLLAEAYSNLGNVYKERGQLQEAIEHYRHALRLKPDFIDGYINLAAALVAAGDMEGAVQAYVSALQYNPDLYCVRSDLGNLLKALGRLEEAKACYLKAIETQPNFAVAWSNLGCVFNAQGEIWLAIHHFEKAVTLDPNFLDAYINLGNVLKEARIFDRAVAAYLRALSLSPNHAVVHGNLACVYYEQGLIDLAIDTYRRAIELQPHFPDAYCNLANALKEKGSVAEAEDCYNTALRLCPTHADSLNNLANIKREQGNIEEAVRLYRKALEVFPEFAAAHSNLASVLQQQGKLQEALMHYKEAIRISPTFADAYSNMGNTLKEMQDVQGALQCYTRAIQINPAFADAHSNLASIHKDSGNIPEAIASYRTALKLKPDFPDAYCNLAHCLQIVCDWTDYDERMKKLVSIVADQLEKNRLPSVHPHHSMLYPLSHGFRKAIAERHGNLCLDKINVLHKPPYEHPKDLKLSDGRLRVGYVSSDFGNHPTSHLMQSIPGMHNPDKFEVFCYALSPDDGTNFRVKVMAEANHFIDLSQIPCNGKAADRIHQDGIHILVNMNGYTKGARNELFALRPAPIQAMWLGYPGTSGALFMDYIITDQETSPAEVAEQYSEKLAYMPHTFFIGDHANMFPHLKKKAVIDFKSNGHIYDNRIVLNGIDLKAFLDSLPDVKIVKMKCPDGGDNADSSNTALNMPVIPMNTIAEAVIEMINRGQIQITINGFSISNGLATTQINNKAATGEEVPRTIIVTTRSQYGLPEDAIVYCNFNQLYKIDPSTLQMWANILKRVPNSVLWLLRFPAVGEPNIQQYAQNMGLPQNRIIFSPVAPKEEHVRRGQLADVCLDTPLCNGHTTGMDVLWAGTPMVTMPGETLASRVAASQLTCLGCLELIAKNRQEYEDIAVKLGTDLEYLKKVRGKVWKQRISSPLFNTKQYTMELERLYLQMWEHYAAGNKPDHMIKPVEVTESA |  | binds | binds
